Measurements reported in paper PMC7819943, “Rice protein-binding microarrays: a tool to detect cis-acting elements near promoter regions in rice”.
The list shows a part of the results.

Target: T1, OsSMF1 (Oryza sativa, UniProt Q6ZLB0 1-436)
T1 sequence: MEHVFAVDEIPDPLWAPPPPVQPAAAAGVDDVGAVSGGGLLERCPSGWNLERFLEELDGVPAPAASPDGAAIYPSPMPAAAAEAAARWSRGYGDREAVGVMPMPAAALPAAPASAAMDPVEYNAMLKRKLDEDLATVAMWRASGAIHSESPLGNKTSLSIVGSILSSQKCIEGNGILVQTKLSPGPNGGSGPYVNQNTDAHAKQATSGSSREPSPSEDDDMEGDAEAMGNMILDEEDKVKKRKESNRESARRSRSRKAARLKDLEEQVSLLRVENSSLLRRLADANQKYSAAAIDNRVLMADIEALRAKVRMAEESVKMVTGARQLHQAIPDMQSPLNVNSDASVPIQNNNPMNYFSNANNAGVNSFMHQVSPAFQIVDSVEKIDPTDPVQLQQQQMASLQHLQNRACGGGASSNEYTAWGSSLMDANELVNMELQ
Experiment: protein-binding microarray (RPBM); PBS, 2% BSA, 51.3 ng/ul salmon testes DNA, 50 uM zinc acetate, 200 nM TF, 25 C, 1 h; high values mean tight binding
Details: protein: recombinant; tags: N-terminal polyhistidine and DsRed monomer fusion (pET32a); chain copies: 2; label: CyDye5-dUTP incorporated in the synthesized complementary strand; 3' TTTTT single-stranded linker to array surface; dsDNA, one strand shown
In short: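 Using Ni–NTA, transcription factors fused N-terminally to polyhistidine and DsRed were purified after expression in E. coli BL21-CodonPlus. These were incubated at 200 nM with a blocked, double-stranded custom Agilent array for 1 h at 25 °C in a buffer containing 50 µM zinc acetate, and the array was washed. The binding signal is per-feature fluorescence intensity (arbitrary units) on an Axon 4000B scanner.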

Question: With “GGTAACCAGGCGTGGCGTACGTGGACCACTCCTTCTCCATCGGAGTCACCTAGTGCAG” as the sequence, how does the binding signal read?
Answer: 7560 fluorescence intensity (a.u.)

Question: For “ACTTAGATGATATCATCCTGTCACTGTCACTAGTCCCACTCGGAGTCACCTAGTGCAG”, which binding signal is on record?
Answer: 4250 fluorescence intensity (a.u.)

Question: With “GCGTGTGTATATATTGGTGTGGAGGAGGAGGAGAAAGGGGCGGAGTCACCTAGTGCAG” as the sequence, how does the binding signal read?
Answer: 4690 fluorescence intensity (a.u.)

Question: Which binding signal does the source give for “GAAAAGATTAAACGTTAGTTGTTGGCACGTACTACCGTGGCGGAGTCACCTAGTGCAG” here?
Answer: 3340 fluorescence intensity (a.u.)

Question: “CAAGTGGGGACAGCGCCACGTGCGCGCTCGCTCTTCTCCACGGAGTCACCTAGTGCAG” was tested. Which binding signal did it give?
Answer: 11500 fluorescence intensity (a.u.)

Question: “TCGCTTCTTCCGACGCCACTTCACCTCTCCTTCCTCCCTCCGGAGTCACCTAGTGCAG” was tested. Which binding signal did it give?
Answer: 3180 fluorescence intensity (a.u.)

Question: For “ATGCGCGATGTGATTTTGCGTGAGCGTGAGGACGTGGGCGCGGAGTCACCTAGTGCAG”, which binding signal is on record?
Answer: 3500 fluorescence intensity (a.u.)

Question: “GTCAGTGTCATGTGATACGCGCATTTTCTCCTCTACCCGTCGGAGTCACCTAGTGCAG” was tested. Which binding signal did it give?
Answer: 3840 fluorescence intensity (a.u.)

Question: For “TTCTGATCTTACTGGGAGACCATCATCAACGTTGTCCAAGCGGAGTCACCTAGTGCAG”, which binding signal is on record?
Answer: 3860 fluorescence intensity (a.u.)

Question: How did the binding signal turn out when “CGCGAAGGACGGGAGCGCGGAGGGGAGCAATGGGTCGGTGCGGAGTCACCTAGTGCAG” was run?
Answer: 31100 fluorescence intensity (a.u.)

Question: With “GCCCGTTCGCCGTCTCCAGGATGTCCACGTCGAACCCCACCGGAGTCACCTAGTGCAG” as the sequence, how does the binding signal read?
Answer: 9590 fluorescence intensity (a.u.)

Question: Which binding signal does the source give for “CCCTCTGTATGGACGGCAAGGGCCTAATCGCAATTTTGGCCGGAGTCACCTAGTGCAG” here?
Answer: 3900 fluorescence intensity (a.u.)

Question: For “CCATGTCGACGTCCGCGCCGTCCATGTCCCCGTCCTCCGGCGGAGTCACCTAGTGCAG”, which binding signal is on record?
Answer: 3560 fluorescence intensity (a.u.)

Question: For “CCAACGCCTGATTCGCTTCTCCATCTGCTTGCATTCAACCCGGAGTCACCTAGTGCAG”, which binding signal is on record?
Answer: 23400 fluorescence intensity (a.u.)

Question: How did the binding signal turn out when “TCAAGTCATGAATTCTCCTATTTCAAGTCACTTCAGAAGTCGGAGTCACCTAGTGCAG” was run?
Answer: 3330 fluorescence intensity (a.u.)

Question: How did the binding signal turn out when “ATATAATACGTACATGGAGCCACGTGGCAACCCGGAGCGACGGAGTCACCTAGTGCAG” was run?
Answer: 24700 fluorescence intensity (a.u.)

Question: “ACCGACGCCAACTCAAACCCCTTCGAAAACCTCCTCCTCCCGGAGTCACCTAGTGCAG” was tested. Which binding signal did it give?
Answer: 3500 fluorescence intensity (a.u.)

Question: Which binding signal does the source give for “TAAGGGACACCGAGAAAACATGAAACTGCCCGAGGACACTCGGAGTCACCTAGTGCAG” here?
Answer: 28800 fluorescence intensity (a.u.)

Question: Which binding signal does the source give for “AATTGCACAGTTTAGCTATAAATCGCGAGACGAATCTTTTCGGAGTCACCTAGTGCAG” here?
Answer: 3590 fluorescence intensity (a.u.)

Question: How did the binding signal turn out when “AAACAACACTATCAATAGACCTGATCATGCAACCATGGTTCGGAGTCACCTAGTGCAG” was run?
Answer: 3420 fluorescence intensity (a.u.)

Question: With “GTGTTCACTCGGTAGACATGACACCGTGCATTGTCGCCACCGGAGTCACCTAGTGCAG” as the sequence, how does the binding signal read?
Answer: 5900 fluorescence intensity (a.u.)

Question: How did the binding signal turn out when “TTACGCCGGTACATACATGCACCATGCCACCATTAGCAGGCGGAGTCACCTAGTGCAG” was run?
Answer: 3190 fluorescence intensity (a.u.)

Question: Which binding signal does the source give for “AGATAATAATTGCTAGTGGGTGATGATGTGACACACTTACCGGAGTCACCTAGTGCAG” here?
Answer: 5580 fluorescence intensity (a.u.)

Question: With “TAGTTTGCCGCACCCACTGCCCCACTCTAAGTCGGCGGTCCGGAGTCACCTAGTGCAG” as the sequence, how does the binding signal read?
Answer: 3540 fluorescence intensity (a.u.)

Question: “GTCAAGCCCAGCAGCTTCTTCAACAGCAGCAGCAACAGCACGGAGTCACCTAGTGCAG” was tested. Which binding signal did it give?
Answer: 4490 fluorescence intensity (a.u.)

Question: Which binding signal does the source give for “TCCACCTCCGACCTCACCGTCACCGCCTTGCCGCGCACCGCGGAGTCACCTAGTGCAG” here?
Answer: 3380 fluorescence intensity (a.u.)

Question: For “CAAATTTACTGTCAGCTTTTCCATTGGTCTGCAGCTATGACGGAGTCACCTAGTGCAG”, which binding signal is on record?
Answer: 3640 fluorescence intensity (a.u.)

Question: Which binding signal does the source give for “GGTTCTTCAGCACCAACTTGATTTTCTACATCCGGTCTTGCGGAGTCACCTAGTGCAG” here?
Answer: 22200 fluorescence intensity (a.u.)

Question: With “TTGAGATTACTTCCTTGTGACGGCCCGCAAATTCTAGTCTCGGAGTCACCTAGTGCAG” as the sequence, how does the binding signal read?
Answer: 3890 fluorescence intensity (a.u.)

Question: How did the binding signal turn out when “ACTCGGCGCGCGCGCGTGTGGCAGTCCAACCATCACCTCACGGAGTCACCTAGTGCAG” was run?
Answer: 3640 fluorescence intensity (a.u.)

Question: Which binding signal does the source give for “AATGGCCCATCCTCTGCTGTCCCCGAGACATCGTGCCGGTCGGAGTCACCTAGTGCAG” here?
Answer: 3360 fluorescence intensity (a.u.)

Question: Which binding signal does the source give for “TATCAAAATTTATCTTGCCACGTTGGTTTAATATTTAACCCGGAGTCACCTAGTGCAG” here?
Answer: 9160 fluorescence intensity (a.u.)

Question: How did the binding signal turn out when “TAACCATGGTCTTGCCTACGTGGCGTGCCACGTAGACGATCGGAGTCACCTAGTGCAG” was run?
Answer: 34300 fluorescence intensity (a.u.)

Question: Which binding signal does the source give for “CAAATTTATTTCATCGACTGCCACCGCCGTTCGATATCCACGGAGTCACCTAGTGCAG” here?
Answer: 4670 fluorescence intensity (a.u.)

Question: “ATTTCATCCGTTCGCACAACAGATCAGGGTTTATATTACCCGGAGTCACCTAGTGCAG” was tested. Which binding signal did it give?
Answer: 15000 fluorescence intensity (a.u.)

Question: How did the binding signal turn out when “TAGTATCGAACAGGCAATGACATCAGGCTGGTGCTTCACGCGGAGTCACCTAGTGCAG” was run?
Answer: 3680 fluorescence intensity (a.u.)

Question: Which binding signal does the source give for “TGCCAATGCACACGGCGCCGTGGCTGGATTGCAGGATTGGCGGAGTCACCTAGTGCAG” here?
Answer: 22800 fluorescence intensity (a.u.)

Question: Which binding signal does the source give for “GCTAACAGTGAGCTGAATCAGCAGCGGCTCCTGTCTCCTGCGGAGTCACCTAGTGCAG” here?
Answer: 4720 fluorescence intensity (a.u.)

Question: For “CTCGCACACAACTGCCAGGTGACGTCGCGGCAAACGTTTCCGGAGTCACCTAGTGCAG”, which binding signal is on record?
Answer: 3630 fluorescence intensity (a.u.)

Question: How did the binding signal turn out when “TCCTTTTCCATCACATCAACCTGTCATACACACACAACTTCGGAGTCACCTAGTGCAG” was run?
Answer: 4300 fluorescence intensity (a.u.)

Question: How did the binding signal turn out when “CCACGTAACAGCTAACGGGGTCCGGCCACGTACAGGTACACGGAGTCACCTAGTGCAG” was run?
Answer: 5650 fluorescence intensity (a.u.)

Question: For “GGCATGGTTCTAACAAACCCACTAACTAATTCATAGTTTTCGGAGTCACCTAGTGCAG”, which binding signal is on record?
Answer: 14700 fluorescence intensity (a.u.)
